Measurements reported in PubChem BioAssay AID1259308 (NCATS, 2017).
This is one part, drawn at random, of about 59,000 reagents tested. About 1,510 of all reagents (2.6%) count as active. 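Calls use total luciferase alone and ignore viability, so some active siRNAs may act by altering cell number.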 Reagents against one gene are numbered here. Reagent sequences are not shown.

Assay: 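Genes whose loss raises luciferase production in HEK293 cells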 (primary screen)
System: human HEK293 embryonic kidney cells stably expressing firefly luciferase (HEK-CMV-Luc2-Hygro)
Reagents: single siRNA against human genes, 0.8 pmol siRNA per well
Time to read-out: 72 h
Read-out: 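Reporter luminescence and viable-cell signal on separate replicate plates, given as percent of non-targeting control and median/MAD z-scores, plus per-cell luciferase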
Direction: total luciferase, z-score and total luciferase, % of control: higher = more reporter protein produced; luciferase per cell, z-score: higher = more reporter output per viable cell; viable cells, % of control: higher = more viable cells
Active means: 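An siRNA counts as active if its total luciferase robust z-score exceeds 3; genes with two or more such siRNAs out of three were retested with fresh siRNAs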
Calls: active = raised luciferase; inactive = no rise

The opening 3 records as a preview:
no.	gene symbol	reagent	total luciferase, z-score	total luciferase, % of control	luciferase per cell, z-score	viable cells, % of control	activity call
1	CTXN1	1	2.67	135	2.14	85.9	inactive
2	CTXN1	2	0.69	95.6	-0.103	110	inactive
3	CTXN1	3	-1.1	59.9	0.592	57.3	inactive

The listing, repeating the preview:
no.	gene symbol	reagent	total luciferase, z-score	total luciferase, % of control	luciferase per cell, z-score	viable cells, % of control	activity call
1	CTXN1	1	2.67	135	2.14	85.9	inactive
2	CTXN1	2	0.69	95.6	-0.103	110	inactive
3	CTXN1	3	-1.1	59.9	0.592	57.3	inactive
4	SSC4D	1	-1.58	50.4	-1.42	81.8	inactive
5	SSC4D	2	-0.0167	81.6	0.117	88.4	inactive
6	SSC4D	3	-1.23	57.3	-1.02	83.9	inactive
7	ITSN1	1	-0.401	73.9	-0.689	99	inactive
8	ITSN1	2	0.622	94.3	0.00395	105	inactive
9	ITSN1	3	-1.15	58.9	-1.54	98.8	inactive
10	SLC6A12	1	-0.67	68.6	-0.26	82	inactive
11	SLC6A12	2	0.112	84.1	-0.612	110	inactive
12	SLC6A12	3	-0.524	71.5	-1.11	107	inactive
13	CAMSAP1	1	-0.373	74.5	0.831	66.9	inactive
14	CAMSAP1	2	-0.356	74.8	0.0389	82.7	inactive
15	CAMSAP1	3	-0.505	71.9	-0.704	96.6	inactive
16	SPON2	1	0.15	84.9	-0.0112	95.1	inactive
17	SPON2	2	-0.682	68.3	-0.45	85.9	inactive
18	SPON2	3	1.7	116	1.61	84.6	inactive
19	MCC	1	0.281	87.5	0.449	86.8	inactive
20	MCC	2	-0.628	69.4	-1.27	108	inactive
21	MCC	3	0.661	95	1.16	78.2	inactive
22	TJP3	1	-1.96	43	-1.05	63.4	inactive
23	TJP3	2	-0.709	67.8	-0.432	84.9	inactive
24	TJP3	3	-1.89	44.4	-1.27	69.2	inactive
